# Results: the supplement of paper PMC12067093, “Discovery and optimisation of a covalent ligand for TRIM25 and its application to targeted protein ubiquitination” (Chemical Science, 2025)
# The chains behind the UniProt entries cited, without tags or fusion partners. Where a name states a change or a piece, a line headed by the entry shows the natural chain unless it says otherwise.
# UniProt P13489: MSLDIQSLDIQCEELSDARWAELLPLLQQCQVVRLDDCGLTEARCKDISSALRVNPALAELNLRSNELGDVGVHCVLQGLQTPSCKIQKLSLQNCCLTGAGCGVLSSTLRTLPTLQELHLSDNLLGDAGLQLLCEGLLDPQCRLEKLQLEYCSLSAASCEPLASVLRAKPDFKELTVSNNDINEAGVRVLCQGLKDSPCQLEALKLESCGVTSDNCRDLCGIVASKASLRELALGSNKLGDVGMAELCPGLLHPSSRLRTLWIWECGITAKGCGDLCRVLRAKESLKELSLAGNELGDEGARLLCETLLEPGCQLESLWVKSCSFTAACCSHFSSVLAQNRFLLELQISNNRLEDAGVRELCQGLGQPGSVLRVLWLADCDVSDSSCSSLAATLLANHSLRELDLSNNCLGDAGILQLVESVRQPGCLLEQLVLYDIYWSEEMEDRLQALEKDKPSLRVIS
# UniProt O75116: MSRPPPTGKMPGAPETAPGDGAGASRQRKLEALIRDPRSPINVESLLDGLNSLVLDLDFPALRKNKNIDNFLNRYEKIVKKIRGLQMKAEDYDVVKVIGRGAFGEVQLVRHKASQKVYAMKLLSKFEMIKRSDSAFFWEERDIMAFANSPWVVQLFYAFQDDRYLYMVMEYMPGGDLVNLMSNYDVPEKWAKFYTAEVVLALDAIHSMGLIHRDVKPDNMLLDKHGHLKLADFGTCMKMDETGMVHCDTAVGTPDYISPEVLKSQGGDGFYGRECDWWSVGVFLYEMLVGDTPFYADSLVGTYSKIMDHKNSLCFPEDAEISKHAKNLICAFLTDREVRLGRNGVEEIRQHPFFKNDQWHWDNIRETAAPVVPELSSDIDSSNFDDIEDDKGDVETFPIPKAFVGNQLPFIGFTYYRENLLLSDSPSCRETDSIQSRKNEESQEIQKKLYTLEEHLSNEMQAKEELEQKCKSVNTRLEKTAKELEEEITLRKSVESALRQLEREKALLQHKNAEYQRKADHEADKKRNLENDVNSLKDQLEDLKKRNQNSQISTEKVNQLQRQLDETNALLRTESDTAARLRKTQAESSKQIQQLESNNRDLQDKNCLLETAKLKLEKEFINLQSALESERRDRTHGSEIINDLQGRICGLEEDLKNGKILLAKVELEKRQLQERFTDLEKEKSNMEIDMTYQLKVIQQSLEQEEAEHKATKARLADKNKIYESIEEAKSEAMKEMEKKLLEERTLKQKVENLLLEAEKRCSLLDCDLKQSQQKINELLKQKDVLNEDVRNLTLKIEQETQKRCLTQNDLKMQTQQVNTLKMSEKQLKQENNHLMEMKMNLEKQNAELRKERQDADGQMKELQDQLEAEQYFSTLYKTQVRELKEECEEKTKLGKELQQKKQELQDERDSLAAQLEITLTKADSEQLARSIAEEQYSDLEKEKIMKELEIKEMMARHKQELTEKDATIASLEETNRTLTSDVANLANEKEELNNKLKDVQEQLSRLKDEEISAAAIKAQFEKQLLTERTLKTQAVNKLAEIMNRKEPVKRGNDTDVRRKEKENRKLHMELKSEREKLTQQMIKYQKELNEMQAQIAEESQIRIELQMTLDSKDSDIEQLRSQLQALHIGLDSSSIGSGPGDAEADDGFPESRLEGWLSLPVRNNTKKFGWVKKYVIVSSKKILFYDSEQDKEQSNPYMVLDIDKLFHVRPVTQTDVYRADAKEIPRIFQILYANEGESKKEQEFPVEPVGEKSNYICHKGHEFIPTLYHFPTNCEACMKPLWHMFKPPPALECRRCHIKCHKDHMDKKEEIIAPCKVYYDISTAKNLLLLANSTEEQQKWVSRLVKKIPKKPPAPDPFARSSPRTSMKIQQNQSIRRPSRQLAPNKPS
# UniProt O60942: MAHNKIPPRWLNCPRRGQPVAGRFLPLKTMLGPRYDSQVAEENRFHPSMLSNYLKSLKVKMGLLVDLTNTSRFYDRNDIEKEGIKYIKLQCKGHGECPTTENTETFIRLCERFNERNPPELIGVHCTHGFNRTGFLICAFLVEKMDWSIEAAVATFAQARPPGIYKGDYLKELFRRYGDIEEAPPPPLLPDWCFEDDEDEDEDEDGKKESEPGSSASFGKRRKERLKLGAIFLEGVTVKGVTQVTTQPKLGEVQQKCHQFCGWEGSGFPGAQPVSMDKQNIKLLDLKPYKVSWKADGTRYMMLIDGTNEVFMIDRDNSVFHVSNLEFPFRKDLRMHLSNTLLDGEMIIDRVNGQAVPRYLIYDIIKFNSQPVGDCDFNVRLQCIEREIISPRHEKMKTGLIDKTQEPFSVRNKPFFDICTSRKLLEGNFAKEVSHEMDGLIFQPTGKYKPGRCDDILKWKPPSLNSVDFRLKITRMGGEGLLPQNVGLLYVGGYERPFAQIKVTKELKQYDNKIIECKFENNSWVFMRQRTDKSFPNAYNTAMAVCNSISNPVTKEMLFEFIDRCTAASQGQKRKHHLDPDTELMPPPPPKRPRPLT
# UniProt Q9P0P0: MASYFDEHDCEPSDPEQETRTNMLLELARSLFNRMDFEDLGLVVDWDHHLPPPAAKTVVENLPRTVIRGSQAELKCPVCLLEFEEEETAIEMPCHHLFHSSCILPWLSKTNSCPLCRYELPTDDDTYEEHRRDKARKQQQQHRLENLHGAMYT
# This is one part of the list.
# Compound: CC1Cc2ccccc2N1C(=O)C1CCCN(C1)C(=O)CCl (mixture of isomers) [TRIM25 ligand 11 (diastereomer mixture)]
# Test: probe-labelled cysteine peptide fold change vs DMSO (competition) (log2 fold change); higher = less target engagement (more negative = stronger competition)
# Conditions: THP-1, incubation time: 4 h
# 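Further: competitive chemoproteomic profiling in live THP-1 cells with an iodoacetamide desthiobiotin (IA-DTB) probe, comparing probe-labelled peptide intensities in compound-treated cells against DMSO-treated controls.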
Target,probe-labelled cysteine peptide fold change (10 µM),probe-labelled cysteine peptide fold change (50 µM)
RNH1_P13489_313_LLCETLLEPGCQLESLWVK (UniProt P13489),0.102,0.0845
RPL8_P62917_90_RTELFIAAEGIHTGQFVYCGK (UniProt P62917),-0.158,-0.0954
RNF213_Q63HN8_78_EEGGPCLFPGSDSWQENPEEPCSK (UniProt Q63HN8),0.117,-0.154
RPL7A_P62424_182_KMGVPYCIIK (UniProt P62424),-0.287,-0.249
ROCK2_O75116_1315_EEIIAPCK (UniProt O75116),-0.00346,-0.0857
RNF213_Q63HN8_2809_QVHLVSFQCSPHSTPQGIISTFR (UniProt Q63HN8),0.227,0.189
RNGTT_O60942_261_CHQFCGWEGSGFPGAQPVSMDK (UniProt O60942),-0.192,-0.0982
RNGTT_O60942_126_NPPELIGVHCTHGFNR (UniProt O60942),0.0434,0.142
RPL28_P46779_13_NCSSFLIK (UniProt P46779),-0.0475,0.0779
ROCK2_O75116_649_ICGLEEDLK (UniProt O75116),-0.0709,-0.126
RNF213_Q63HN8_1788_CLPAFLPDCLDLETLGHCLAHLAGMGGSPVER (UniProt Q63HN8),-0.259,-0.11
RNF181_Q9P0P0_116_TNSCPLCR (UniProt Q9P0P0),-0.183,0.024
RNGTT_O60942_97_GHGECPTTENTETFIR (UniProt O60942),0.159,-0.0768
RPL11_P62913_21+25_LCLNICVGESGDR (UniProt P62913),0.0343,0.0239

# A stretch of the results above, for reference:
Target,probe-labelled cysteine peptide fold change (10 µM),probe-labelled cysteine peptide fold change (50 µM)
RPL28_P46779_13_NCSSFLIK (UniProt P46779),-0.0475,0.0779
ROCK2_O75116_649_ICGLEEDLK (UniProt O75116),-0.0709,-0.126
